# In PubChem BioAssay AID2685 (National Center for Advancing Translational Sciences (NCATS), 2010):
# The other results are listed elsewhere or left out. Shown are side measurements of this screen, not its main read-out; they come without a call. Most of these compounds were active or inconclusive in the main read-out, so they are no random draw. The note in brackets gives the kind of curve behind each potency; many fits are weak.
# Assay: qHTS Assay for Lipid Storage Modulators in Drosophila S3 Cells;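 for cell number change: cells counted by Cell Tracker Red CMTPX staining in the red channel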
# Settings: BODIPY lipid droplet fluorescence, 18-24 h; for cell number change: measured here: cell count max response, cells fed with added oleic acid
# Procedure, shortened: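 Drosophila S3 cells loaded with oleic acid (400 uM, as added) and compounds at several concentrations; lipid droplets imaged by 488-nm laser-scanning cytometry, 500–530 nm intensity and object ratio to cell channel. Percent activity normalized to 20 uM Triacsin C.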
# [1] = measured here: lipid fluorescence (Fed channel) AC50, cells fed with added oleic acid
# [2] = measured here: cell number channel AC50, cells fed with added oleic acid
smiles,measurement,setting,value
O=C(/C=C/c1ccccc1)Nc1ncn[nH]1,cell number change,,-20.2%
same,AC50,[1],"16.4 µM [falling, single point]"
CCOC(=O)N1CCN(C(=O)C2CCN(S(=O)(=O)c3cc(OC)ccc3OC)CC2)CC1,cell number change,,27.9%
O=C(CSc1ccc([N+](=O)[O-])cn1)Nc1ccc2c(c1)OCO2,cell number change,,-2.7%
same,AC50,[1],"11.6 µM [rising, single point]"
COc1cccc(-c2nnc(NC(=O)CCS(=O)(=O)c3ccc(C)cc3)o2)c1,cell number change,,25%
same,AC50,[2],"4.61 µM [rising, full curve, poor fit]"
Cc1nc2ccc(NC(=O)COc3cccc(F)c3)cc2s1,AC50,[2],"0.103 µM [rising, single point]"
same,AC50,[1],"0.058 µM [rising, partial curve, poor fit]"
O=C(CSc1ncn[nH]1)CSc1ncn[nH]1,cell number change,,1.57%
same,AC50,[1],"0.461 µM [falling, single point]"
CCOC(=O)c1cnc2c(C(F)(F)F)cccc2c1NCCCN1CCOCC1,cell number change,,-2.21%
same,AC50,[1],"20.6 µM [falling, single point]"
COc1ccc(Oc2ccc(N/C=C/C(=O)C(C)(C)C)cc2)cc1,cell number change,,23.2%
same,AC50,[2],"0.103 µM [rising, full curve, poor fit]"
O=C(CCCN1C(=O)C2CCCCN2C1=O)N1CCN(c2ccc([N+](=O)[O-])cc2)CC1 (centres undefined),AC50,[1],"0.58 µM [rising, single point]"
COc1ccc(CCN(Cc2cc3cc(C)cc(C)c3nc2Cl)C(=O)C2CC2)cc1,cell number change,,-19.9%
same,AC50,[1],"0.231 µM [falling, full curve, poor fit]"
O=C(NCCCN1CCCCC1)C1CCCN(c2ncnc3c2nc2n3CCCCC2)C1 (centres undefined),AC50,[1],"29.1 µM [falling, single point]"
CCOC(=O)c1sc(C)c(C(=O)NCC(C)(C)CN(C)C)c1N,cell number change,,13.1%
same,AC50,[1],"0.58 µM [rising, single point]"
CCCCNC(=O)NS(=O)(=O)c1ccc(NS(=O)(=O)c2ccccc2)cc1,cell number change,,-24.6%
same,AC50,[2],"4.11 µM [falling, full curve, poor fit]"
same,AC50,[1],"1.03 µM [rising, full curve]"
Cc1cc(NC(=O)CSc2nnc(-c3cccnc3)n2C2CCCCC2C)no1 (centres undefined),AC50,[2],"0.58 µM [rising, single point]"
same,AC50,[1],"0.58 µM [rising, single point]"
FC(F)(F)COc1ccc(-c2nnc(SCc3c(Cl)cccc3Cl)o2)cn1,cell number change,,-2%
same,AC50,[2],"0.206 µM [rising, partial curve, poor fit]"
O=C(CCC(=O)N1CCCCC1)Nc1nnc(C2CCCCC2)s1,cell number change,,-17.7%
same,AC50,[1],"6.51 µM [falling, single point]"
CC(C)NC(=O)NC(=O)CSc1ncc(C(F)(F)F)cc1Cl,cell number change,,-31.8%
same,AC50,[2],"9.2 µM [falling, partial curve]"
COc1ccc(CNC(=O)CN(C(=O)c2snc(C(N)=O)c2N)c2ccc(OC)c(OC)c2)cc1,cell number change,,34.6%
same,AC50,[2],"32.6 µM [rising, single point]"
COc1ccccc1N1CCN(S(=O)(=O)c2ccccc2)CC1,AC50,[2],"2.59 µM [rising, partial curve]"
CCCCC(=O)NC(Nc1cc(C)ccn1)(C(=O)OCC)C(F)(F)F (centres undefined),cell number change,,-31.6%
same,AC50,[2],"29.1 µM [falling, single point]"
same,AC50,[1],"23.1 µM [falling, single point]"
CC(=O)NCc1c(Cl)cccc1-n1cccc1,cell number change,,42%
N=c1n(CCN2CCCCC2)c2ccccc2n1CC(=O)c1cccc([N+](=O)[O-])c1,cell number change,,-25.7%
same,AC50,[1],"29.1 µM [falling, single point]"
COc1ccc(CC(=O)NC(C)c2nnc(SCc3nc4ccccc4c(=O)[nH]3)n2C)cc1 (centres undefined),cell number change,,1.2%
Nc1c2c(nc3ccccc13)CCCC2=O,cell number change,,9.71%
same,AC50,[1],"5.8 µM [rising, single point]"
CCOC(=O)NCc1ccc(S(=O)(=O)Nc2c(C)cccc2C)cc1,cell number change,,42.8%
same,AC50,[2],"0.651 µM [rising, full curve, poor fit]"
same,AC50,[1],"0.326 µM [rising, partial curve, poor fit]"
O=C(CCCc1ccccc1)NCc1ccc(F)cc1,cell number change,,-1.57%
same,AC50,[1],"20.6 µM [rising, single point]"
COc1ccc(CNC(=O)Cn2cc(C(F)(F)F)ccc2=O)cc1OC,cell number change,,12.6%
same,AC50,[1],"29.1 µM [rising, single point]"
CN/C=C1\C(=O)C(C)(C)Oc2ccc3ccc(=O)oc3c21,AC50,[2],"1.64 µM [falling, partial curve]"
same,AC50,[1],"1.3 µM [falling, full curve]"
O=C(NCN1C(=O)C2C3C=CC(C3)C2C1=O)Nc1cccnc1 (centres undefined),cell number change,,-63.4%
same,AC50,[2],"29.1 µM [falling, single point]"
same,AC50,[1],"29.1 µM [falling, single point]"
CCOc1cc(N2CCOCC2)c(OCC)cc1NC(=O)c1c(-c2ccccc2)noc1C,cell number change,,-6.91%
same,AC50,[1],"29.1 µM [falling, single point]"
COc1ccc(S(=O)(=O)N2CCN(C(=O)c3cccnc3)CC2)cc1OC,cell number change,,17.3%
same,AC50,[1],"5.8 µM [falling, single point]"
CN(C)CCCNC(=O)C(=O)NCC(c1cccs1)S(=O)(=O)c1ccc(F)cc1 (centres undefined),cell number change,,-57.2%
same,AC50,[2],"29.1 µM [falling, single point]"
CC(=O)C1=C(O)C(=O)N(Cc2ccccc2)C1c1ccccc1F (centres undefined),AC50,[1],"16.4 µM [falling, partial curve]"
O=C(NNc1cc(C(F)(F)F)ccc1Cl)c1ccc(=O)[nH]c1,cell number change,,-7.98%
CCOC(=O)C1CCCN(C(=O)c2cccc(N3C(=O)c4ccccc4C3=O)c2)C1 (centres undefined),cell number change,,17.5%
same,AC50,[2],"3.26 µM [falling, single point]"
COc1ccccc1NC(=O)C1=C(C)NC(SCC(=O)c2ccccc2)=C(C#N)C1c1ccco1 (centres undefined),AC50,[2],"4.11 µM [rising, partial curve]"
same,AC50,[1],"3.26 µM [rising, partial curve]"
COc1cccc(N2CCN(C(=O)c3ccc(CS(=O)c4ccccc4Cl)o3)CC2)c1 (centres undefined),cell number change,,-18.6%
same,AC50,[1],"29.1 µM [falling, single point]"
O=C(c1ccc(S(=O)(=O)N2CCC(c3nc4ccccc4s3)CC2)cc1)N1CCOCC1,cell number change,,3.55%
O=C(Nc1ccccc1)N1CC=C(c2ccccc2)CC1,cell number change,,-3.05%
same,AC50,[1],"18.4 µM [rising, single point]"
CN(Cc1ccccc1)C(=O)CN(c1ccc(F)cc1)S(=O)(=O)c1ccc2c(c1)OCCO2,cell number change,,2.1%
same,AC50,[1],"0.00461 µM [rising, full curve, poor fit]"
COc1ccc(Cl)cc1S(=O)(=O)N1CCN(C(=O)c2cc(OC)c(OC)c(OC)c2)CC1,cell number change,,-28.6%
same,AC50,[1],"32.6 µM [falling, single point]"
CCC(c1nnnn1Cc1ccco1)N(CCc1ccccc1)Cc1cc2cccc(C)c2[nH]c1=O (centres undefined),AC50,[2],"0.058 µM [rising, full curve, poor fit]"
same,AC50,[1],"6.51 µM [rising, partial curve, poor fit]"
CC(C)CCOc1ccc(C(=O)N2CCN(c3ncccn3)CC2)cc1,cell number change,,-4.17%
same,AC50,[1],"29.1 µM [falling, single point]"
COC(=O)C1=C(N)Oc2cc(C)n(CC3CCCO3)c(=O)c2C1c1ccc(Cl)cc1 (centres undefined),cell number change,,-3.1%
same,AC50,[1],"29.1 µM [rising, single point]"
O=S(=O)(Nc1ccc(O)c(CN2CCCCC2)c1)c1ccccc1,cell number change,,15%
same,AC50,[1],"14.6 µM [rising, single point]"
COc1cccc(Nc2nc(NCC3CCCO3)c3ccccc3n2)c1 (centres undefined),cell number change,,-78.5%
same,AC50,[2],"18.4 µM [falling, partial curve]"
same,AC50,[1],"18.4 µM [falling, partial curve]"
Cc1ccc(NS(=O)(=O)c2ccc(OCC(=O)N3CCOCC3)cc2)cc1,cell number change,,0.621%
CN(Cc1ccccc1)Cc1c(F)cccc1F,cell number change,,-89.5%
same,AC50,[2],"18.4 µM [falling, single point]"
same,AC50,[1],"29.1 µM [falling, partial curve]"
CCCOC(=O)c1ccc(Oc2cn[nH]c2-c2ccc(O)cc2O)cc1,cell number change,,-43.3%
same,AC50,[2],"0.82 µM [falling, full curve]"
same,AC50,[1],"1.16 µM [falling, full curve]"
CCOC(=O)c1nn(-c2ccccc2)c2nnc(Cc3ccccc3)c(=O)n12,cell number change,,31.2%
same,AC50,[2],"2.06 µM [rising, partial curve, poor fit]"
CCN1C(=O)[C@@H]2[C@@H](c3ccc(-c4ccc5c(c4)OCO5)cc3)N3CCCC[C@@]3(C(=O)OC)[C@@H]2C1=O,cell number change,,8.51%
same,AC50,[1],"6.51 µM [rising, single point]"
O=C(CC(=O)NC1CCCCC1)N/N=C/c1ccccc1[N+](=O)[O-],cell number change,,-24.6%
CCOC(=O)c1[nH]c2c(c1-c1ccccc1)C(=O)CC(c1ccccc1)C2 (centres undefined),cell number change,,22%
CC(C)c1ccccc1N=C1SCCN1C1CCS(=O)(=O)C1 (centres undefined),cell number change,,8.58%
same,AC50,[2],"7.31 µM [rising, partial curve, poor fit]"
CCCCC(=O)c1ccc(O)cc1,cell number change,,-17.9%
same,AC50,[1],"0.13 µM [falling, full curve, poor fit]"
COc1ccc([N+](=O)[O-])cc1NC(=O)C(C)OC(=O)c1cccnc1 (centres undefined),cell number change,,45.5%
same,AC50,[2],"29.1 µM [rising, single point]"
same,AC50,[1],"29.1 µM [rising, single point]"
Cc1ccc(-c2nc(-c3cccnc3)no2)cc1,cell number change,,53.8%
same,AC50,[2],"23.1 µM [rising, partial curve]"
same,AC50,[1],"0.731 µM [rising, single point]"
COc1ccc(C(=O)C[n+]2ccc(C)cc2)cc1,cell number change,,85.4%
same,AC50,[2],"29.1 µM [rising, single point]"
same,AC50,[1],"0.0231 µM [falling, full curve, poor fit]"

# 3 entries from above, bar-delimited:
smiles | measurement | setting | value
O=S(=O)(Nc1ccc(O)c(CN2CCCCC2)c1)c1ccccc1 | cell number change |  | 15%
same | AC50 | [1] | 14.6 µM [rising, single point]
COc1cccc(Nc2nc(NCC3CCCO3)c3ccccc3n2)c1 (centres undefined) | cell number change |  | -78.5%

# As a short view, part of the list above:
smiles,measurement,setting,value
COc1ccc(CC(=O)NC(C)c2nnc(SCc3nc4ccccc4c(=O)[nH]3)n2C)cc1 (centres undefined),cell number change,,1.2%
Nc1c2c(nc3ccccc13)CCCC2=O,cell number change,,9.71%
same,AC50,[1],"5.8 µM [rising, single point]"
CCOC(=O)NCc1ccc(S(=O)(=O)Nc2c(C)cccc2C)cc1,cell number change,,42.8%
same,AC50,[2],"0.651 µM [rising, full curve, poor fit]"
